According to PubChem BioAssay AID504850 (National Center for Advancing Translational Sciences (NCATS), 2011):
Screen size: about 2,300 compounds; about 1,200 (52%) were called active. The set was probably picked from earlier hits. This list was built around the results that the source calls inconclusive (neither active nor inactive); the mix of calls is not that of the screen. Calls come from the whole dose curve; as a rule, active = well fitted inhibition curve with a large enough effect; inconclusive = small, poorly fitted or top-dose-only effect, or effect the other way; inactive = no such curve, though single readings can be large or run the other way. Where the call is inconclusive, the potency comes from a doubtful curve fit.

Assay: Confirmation screen for delayed death inhibitors of the malarial parasite plastid, 48 hour incubation; note: nearly all actives have a fitted effect of over 65% in size
Conditions: P. falciparum-infected erythrocytes, luciferase growth; series mostly up to 28.7 µM; activity change, negative = inhibition: at the top concentration
In short: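 Single-generation (48 h, 37 C) exposure of integrated firefly luciferase-reporter P. falciparum in red cells, 0.1% parasitemia at 2% hematocrit, Albumax-supplemented RPMI. Falling luciferase signal marks parasite growth inhibition.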
% is set by controls: 0 for no effect and ±100 for the full control effect; potency is the fitted concentration of half-maximal effect.

| Compound | Potency | activity change, negative = inhibition |
| --- | --- | --- |
| O=C(c1ccco1)N1CCN(C2c3ccccc3-c3ccccc32)CC1 | inconclusive: 17.8 µM [inhibitor, partial curve, poor fit] | – |
| COc1ccc(/C=C/C(=O)c2ccccc2)cc1Cn1nnc2ccccc21 | active: 10 µM | – |
| CC(C)NC(=O)c1onc(CSc2ccc(C(C)C)cc2)c1C(=O)O | – | inactive: -21.4% |
| CC(C)C[C@H](NC(=O)c1[nH]cnc1C(=O)N[C@@H](C)C(=O)OC(C)(C)C)C(=O)OC(C)(C)C | active: 7.08 µM | – |
| N=C(N)c1ccc(OCCCCCOc2ccc(C(=N)N)cc2)cc1 | active: 1 µM | – |
| c1ccc2oc(Cc3ccc(Cc4nc5ccccc5o4)cc3)nc2c1 | inconclusive: 11.2 µM [inhibitor, partial curve] | – |
| O=C(CSc1nnc(NC(=O)C2CC2)s1)Nc1cccc(F)c1 | inconclusive: 2.24 µM [activator, full curve] | – |
| Cc1ccc(OCC(=O)Nn2cnnc2)c(Br)c1 | – | inactive: 2.15% |
| O=C(c1ccc([N+](=O)[O-])cc1)n1nc(-c2ccccc2)nc1NCc1ccc(F)cc1 | – | inactive: -27.9% |
| Cc1ccc(CN2CCC(CNS(=O)(=O)c3ccc(-c4ccc(=O)[nH]n4)s3)CC2)cc1 | active: 5.01 µM | – |
| Cc1cccc(N2CCN(C(=O)C3CCN(c4ncnc5c4nc4n5CCCCC4)CC3)CC2)c1C | active: 14.1 µM | – |
| O=C(CCN1C(=O)/C(=C\c2ccc(F)cc2)SC1=S)Nc1ccccc1 | – | inactive: 7.17% |
| O=C1N=C(N2CCN(c3ccccc3)CC2)S/C1=C/c1cccs1 | inconclusive: 14.1 µM [inhibitor, single point] | – |
| O=C(CNC(=O)c1ccco1)OCC(=O)c1ccccc1 | – | inactive: 2.63% |
| CN(c1ccccc1)S(=O)(=O)c1ccc(NC(=O)c2nc(S(C)(=O)=O)ncc2Cl)cc1 | – | inactive: -6.44% |
| CCCCCCn1c(=O)[nH]c2nc3cc(N)ccc3nc2c1=O | inconclusive: 14.1 µM [inhibitor, single point] | – |
| COc1cc(/C=C/C(=O)OCC(=O)Nc2c(C)n(C)n(-c3ccccc3)c2=O)cc(OC)c1OC | – | inactive: -10.5% |
| Cn1cc([N+](=O)[O-])c(C(=O)Nc2nccs2)n1 | – | inactive: 0.495% |
| O=C(C1CCCCC1)N1CCN=C1SCc1cccc([N+](=O)[O-])c1 | inconclusive: 15.8 µM [inhibitor, single point] | – |
| CCN(CC)C(=O)C1CCCc2c1[nH]c1ccc(Cl)cc21 (configuration not stated) | inconclusive: 0.0089 µM [inhibitor, full curve, poor fit] | – |
| O=C1C(=O)N(Cc2ccncc2)C(c2cccc(O)c2)/C1=C(\O)c1ccc2c(c1)OCCO2 (configuration not stated) | inconclusive: 0.0447 µM [inhibitor, full curve, poor fit] | – |
| O=C1NC(NS(=O)(=O)c2ccc(Cl)cc2)(C(F)(F)F)C(=O)N1Cc1cccnc1 (configuration not stated) | – | inactive: -27.7% |
| Cc1cc(C(=O)Nc2c(C)nn(Cc3c(Cl)cccc3Cl)c2C)no1 | inconclusive: 10 µM [inhibitor, partial curve, poor fit] | – |
| COc1ccc2[nH]cc(CCCN3C(=O)c4ccccc4C3=O)c2c1 | – | inactive: -25.1% |

Ordered by molar mass (ascending): part of the list above.

| Compound | Potency | activity change, negative = inhibition |
| --- | --- | --- |
| CCN(CC)C(=O)C1CCCc2c1[nH]c1ccc(Cl)cc21 (configuration not stated) | inconclusive: 0.0089 µM [inhibitor, full curve, poor fit] | – |
| CCCCCCn1c(=O)[nH]c2nc3cc(N)ccc3nc2c1=O | inconclusive: 14.1 µM [inhibitor, single point] | – |
| O=C1C(=O)N(Cc2ccncc2)C(c2cccc(O)c2)/C1=C(\O)c1ccc2c(c1)OCCO2 (configuration not stated) | inconclusive: 0.0447 µM [inhibitor, full curve, poor fit] | – |

Additional records:

| Compound | Potency | activity change, negative = inhibition |
| --- | --- | --- |
| Cc1ccc(C)c(-c2csc(N/N=C/c3ccco3)n2)c1 | inconclusive: 15.8 µM [inhibitor, single point] | – |
| CC1C/C(=C/c2ccncc2)C(=O)/C(=C/c2ccncc2)C1 (configuration not stated) | active: 3.98 µM | – |
| Cc1cccc(C2Nc3ccccc3C(=O)N2c2ccccc2)n1 (configuration not stated) | – | inactive: -25.3% |
| CN(CC(=O)Nc1ccc(F)c(Cl)c1)S(=O)(=O)c1ccc2c(c1)n(C)c(=O)c(=O)n2C | inconclusive: 15.8 µM [inhibitor, partial curve, poor fit] | – |
| CCOC(=O)CN1C(=O)/C(=C/c2c(F)cccc2Cl)Oc2ccccc21 | inconclusive: 15.8 µM [inhibitor, single point] | – |
| Cc1ccc(Nc2cc(C)nc3ccc(C)cc23)cc1 | active: 10 µM | – |
| CC(=O)N1CCN(S(=O)(=O)c2cccc(C(=O)NCCC3=CCCCC3)c2)CC1 | inconclusive: 15.8 µM [inhibitor, single point] | – |
| O=C(O)c1ccccc1NC(=O)c1ccccc1Nc1ccccc1 | inconclusive: 11.2 µM [inhibitor, partial curve, poor fit] | – |
| CCN(CC)c1ccc(/C=C2\SC(=O)N(C(C)C)C2=O)o1 | inconclusive: 14.1 µM [inhibitor, single point] | – |
| COC(=O)c1ccccc1SC1CC(=O)N(c2ccccc2)C1=O (configuration not stated) | – | inactive: -4.09% |
| O=C(O)c1nn(CCOc2ccc(Cl)cc2Cl)c(=O)c2ccccc12 | – | inactive: -10% |
| O=C1N/C(=C/c2ccc(N3CCOCC3)o2)C(=O)N1c1ccccc1 | inconclusive: 2 µM [inhibitor, partial curve, poor fit] | – |
| CCCn1cc(S(=O)(=O)c2ccc(Cl)cc2)c(=O)c2cc(OC)ccc21 | active: 12.6 µM | – |
| O=C(CSc1c2c(nc3ccccc13)CCCC2)NCc1ccco1 | – | inactive: -14.6% |
| COCCNC(=O)c1cccc(OC2CCN(Cc3cccc(SC)c3)CC2)c1 | inconclusive: 12.6 µM [inhibitor, partial curve, poor fit] | – |
| CCOC(=O)Nc1ccc(C(=O)/C=C/c2ccccc2)cc1 | inconclusive: 15.8 µM [inhibitor, single point] | – |
| Cc1cccc(C)c1Nc1c(-c2ccc(N3CCOCC3)cc2)nc2ncccn12 | active: 12.6 µM | – |
| N=C(N)c1ccc(/C=C/c2ccc(C(=N)N)cc2O)cc1 | active: 0.708 µM | – |
| CCn1c(SCC(=O)N2CCCC2)nc2c(c1=O)SCC2 | inconclusive: 14.1 µM [inhibitor, partial curve, poor fit] | – |
| COc1ccc(OC)c(NC(=O)c2nc(S(=O)(=O)Cc3ccccc3)ncc2Cl)c1 | – | inactive: -17.6% |
| CC(=O)OC[C@H]1O[C@@H](n2ncc(=O)[nH]c2=O)[C@H](OC(C)=O)[C@@H]1OC(C)=O | – | inactive: -3.23% |
| CC1Cc2ccccc2N1CC(=O)NC(=O)NCc1ccco1 (configuration not stated) | inconclusive: 17.8 µM [inhibitor, single point] | – |
| CCN(CC)c1ccc(-c2sc(Nc3ccccc3)n[n+]2-c2ccc(F)cc2)cc1 | inconclusive: 15.8 µM [inhibitor, single point] | – |
| CCN1C/C(=C/c2ccc(OC)c(O)c2)C(=O)/C(=C/c2ccc(OC)c(O)c2)C1 | inconclusive: 14.1 µM [inhibitor, single point] | – |

| Compound | Potency | activity change, negative = inhibition |
| --- | --- | --- |
| Cc1ccccc1NC(=O)Cc1nnc(SCC(=O)NC2CCCCC2)n1C | – | inactive: -9.87% |
| CN(CC(=O)Nc1ccc(Cl)cc1)C(=O)Cc1c(F)cccc1Cl | inconclusive: 12.6 µM [inhibitor, partial curve, poor fit] | – |
| O=C(COc1ccc(Cl)cc1)NCc1nnc2c3ccccc3c(-c3ccccc3)nn12 | inconclusive: 15.8 µM [inhibitor, partial curve] | – |
| C=CCNC(=O)c1onc(CSc2cccc(C)c2)c1C(=O)O | inconclusive: 2.82 µM [activator, partial curve, poor fit] | – |
| Cc1ccc(C2(C)NC(=O)N(CC(=O)N3CCN(S(=O)(=O)c4cccc(F)c4)CC3)C2=O)cc1 (configuration not stated) | inconclusive: 15.8 µM [inhibitor, single point] | – |
| O=C(c1ccc(Cl)cc1)N1CCN(C(=O)C2CCCCC2)CC1 | inconclusive: 10 µM [inhibitor, single point] | – |
| C=CCNC(=O)c1onc(CSc2ccc(F)c(F)c2)c1C(=O)O | – | inactive: -2.36% |
| CC1S/C(=N/N=C/c2ccco2)N(Cc2ccccc2)C1=O (configuration not stated) | – | inactive: -10.7% |
| Cc1ccccc1-n1c(SCC(=O)c2c(N)n(C3CC3)c(=O)[nH]c2=O)nnc1N1CCOCC1 | inconclusive: 12.6 µM [inhibitor, partial curve] | – |
| CCC(=O)c1ccc(OCC(O)CNC(C)c2ccccc2)cc1 (configuration not stated) | active: 11.2 µM | – |
| CC(C)NC(=O)c1onc(CSc2cccc3ccccc23)c1C(=O)O | – | inactive: -31.7% |
| O=S(=O)(c1ccc(Cl)c(Cl)c1)c1snnc1-c1ccccc1 | active: 12.6 µM | – |
| NC(=O)COc1ccc(C(=O)/C=C2/C(=O)Nc3ccccc32)cc1 | – | inactive: -13.9% |
| CN(c1ccccc1)S(=O)(=O)c1ccc(-c2ccccc2)cc1 | inconclusive: 15.8 µM [inhibitor, single point] | – |
| Brc1ccccc1-c1nnc(COc2ncnc3c2cnn3-c2ccccc2)o1 | – | inactive: -15.7% |
| N#Cc1ncc(-c2ccc3c(c2)OCCOCCOCCOCCOCCO3)nc1C#N | inconclusive: 10 µM [inhibitor, single point] | – |
| O=C(CSCc1cc(=O)n2nc(C3CC3)sc2n1)Nc1ccc(F)cc1 | inconclusive: 20 µM [inhibitor, partial curve, poor fit] | – |
| O=C(NCc1ccccc1)C(c1cccnc1)N(C(=O)c1ccccn1)c1ccccc1F (configuration not stated) | – | inactive: -19.9% |
| COC(=O)[C@]1(CC(C)C)N[C@H](c2ccc(-c3ccc(F)cc3)c(OC)c2)[C@@H]2C(=O)N(C)C(=O)[C@@H]21 | active: 6.31 µM | – |
| COc1ccc(C2(c3ccc(OC)cc3)NC(=O)N(CC(=O)Nc3ccc(C(N)=O)cc3)C2=O)cc1 | inconclusive: 12.6 µM [inhibitor, partial curve, poor fit] | – |
| Cc1ccc(-c2csc(SCC(=O)c3c(N)n(C4CC4)c(=O)[nH]c3=O)n2)cc1 | – | inactive: -4.3% |
| COC(=O)c1ccc(NC(=O)c2cccc(NC(=O)c3ccco3)c2)cc1 | inconclusive: 10 µM [inhibitor, partial curve, poor fit] | – |
| COc1cccc2c1Oc1ncccc1N(C(=O)CCC(=O)NCc1ccccc1F)C2 | inconclusive: 14.1 µM [inhibitor, single point] | – |
| O=C(NCc1cccnc1)c1ccc(NS(=O)(=O)c2ccccc2)cc1 | inconclusive: 17.8 µM [inhibitor, partial curve, poor fit] | – |

Entries shown so far containing fluorine:

| Compound | Potency | activity change, negative = inhibition |
| --- | --- | --- |
| O=C(CSc1nnc(NC(=O)C2CC2)s1)Nc1cccc(F)c1 | inconclusive: 2.24 µM [activator, full curve] | – |
| O=C(c1ccc([N+](=O)[O-])cc1)n1nc(-c2ccccc2)nc1NCc1ccc(F)cc1 | – | inactive: -27.9% |
| O=C(CCN1C(=O)/C(=C\c2ccc(F)cc2)SC1=S)Nc1ccccc1 | – | inactive: 7.17% |
| O=C1NC(NS(=O)(=O)c2ccc(Cl)cc2)(C(F)(F)F)C(=O)N1Cc1cccnc1 (configuration not stated) | – | inactive: -27.7% |
| CN(CC(=O)Nc1ccc(F)c(Cl)c1)S(=O)(=O)c1ccc2c(c1)n(C)c(=O)c(=O)n2C | inconclusive: 15.8 µM [inhibitor, partial curve, poor fit] | – |
| CCOC(=O)CN1C(=O)/C(=C/c2c(F)cccc2Cl)Oc2ccccc21 | inconclusive: 15.8 µM [inhibitor, single point] | – |
| CCN(CC)c1ccc(-c2sc(Nc3ccccc3)n[n+]2-c2ccc(F)cc2)cc1 | inconclusive: 15.8 µM [inhibitor, single point] | – |
| CN(CC(=O)Nc1ccc(Cl)cc1)C(=O)Cc1c(F)cccc1Cl | inconclusive: 12.6 µM [inhibitor, partial curve, poor fit] | – |
| Cc1ccc(C2(C)NC(=O)N(CC(=O)N3CCN(S(=O)(=O)c4cccc(F)c4)CC3)C2=O)cc1 (configuration not stated) | inconclusive: 15.8 µM [inhibitor, single point] | – |
| C=CCNC(=O)c1onc(CSc2ccc(F)c(F)c2)c1C(=O)O | – | inactive: -2.36% |
| O=C(CSCc1cc(=O)n2nc(C3CC3)sc2n1)Nc1ccc(F)cc1 | inconclusive: 20 µM [inhibitor, partial curve, poor fit] | – |
| O=C(NCc1ccccc1)C(c1cccnc1)N(C(=O)c1ccccn1)c1ccccc1F (configuration not stated) | – | inactive: -19.9% |
| COC(=O)[C@]1(CC(C)C)N[C@H](c2ccc(-c3ccc(F)cc3)c(OC)c2)[C@@H]2C(=O)N(C)C(=O)[C@@H]21 | active: 6.31 µM | – |
| COc1cccc2c1Oc1ncccc1N(C(=O)CCC(=O)NCc1ccccc1F)C2 | inconclusive: 14.1 µM [inhibitor, single point] | – |
